Measurements as given in paper PMC10556790.
These are yes or no findings as the source states them, for the method shown. Binding seen in cells or lysates may run through a third protein. A yes stands for co-enrichment or nearness to the bait. Other partners may have been found.

By UniProt entry, the sequences of proteins in these tests, tags left out. Residues count along the entry.
UniProt P00441: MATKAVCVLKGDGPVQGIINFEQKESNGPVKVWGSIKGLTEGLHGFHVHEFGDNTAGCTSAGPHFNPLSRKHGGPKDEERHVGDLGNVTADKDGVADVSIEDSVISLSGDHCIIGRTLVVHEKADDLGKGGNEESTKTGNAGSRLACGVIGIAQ
UniProt Q96DU9: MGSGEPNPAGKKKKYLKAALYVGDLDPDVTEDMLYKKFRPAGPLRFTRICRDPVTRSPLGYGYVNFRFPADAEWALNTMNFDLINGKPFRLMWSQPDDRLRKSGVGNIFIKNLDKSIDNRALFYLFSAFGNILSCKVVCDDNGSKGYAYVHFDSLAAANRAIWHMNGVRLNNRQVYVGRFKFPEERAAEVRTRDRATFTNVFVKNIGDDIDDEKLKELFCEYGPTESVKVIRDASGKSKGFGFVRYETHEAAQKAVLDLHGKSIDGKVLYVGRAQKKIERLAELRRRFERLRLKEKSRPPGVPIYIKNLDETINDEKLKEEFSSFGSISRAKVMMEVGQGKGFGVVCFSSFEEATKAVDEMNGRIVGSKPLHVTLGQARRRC
UniProt P63167: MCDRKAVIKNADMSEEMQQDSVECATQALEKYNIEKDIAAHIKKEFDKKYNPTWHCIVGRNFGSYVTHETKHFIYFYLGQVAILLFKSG
UniProt P36873: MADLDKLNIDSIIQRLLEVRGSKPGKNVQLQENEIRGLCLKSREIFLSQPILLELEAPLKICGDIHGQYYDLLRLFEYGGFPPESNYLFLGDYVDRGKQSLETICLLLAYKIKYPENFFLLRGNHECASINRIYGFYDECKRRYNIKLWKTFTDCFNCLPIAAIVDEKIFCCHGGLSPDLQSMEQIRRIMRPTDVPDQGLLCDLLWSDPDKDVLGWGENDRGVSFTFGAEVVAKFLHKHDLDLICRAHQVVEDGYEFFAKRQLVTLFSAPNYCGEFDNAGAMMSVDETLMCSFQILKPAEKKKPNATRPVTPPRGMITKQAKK
UniProt P40939, residues 37-763: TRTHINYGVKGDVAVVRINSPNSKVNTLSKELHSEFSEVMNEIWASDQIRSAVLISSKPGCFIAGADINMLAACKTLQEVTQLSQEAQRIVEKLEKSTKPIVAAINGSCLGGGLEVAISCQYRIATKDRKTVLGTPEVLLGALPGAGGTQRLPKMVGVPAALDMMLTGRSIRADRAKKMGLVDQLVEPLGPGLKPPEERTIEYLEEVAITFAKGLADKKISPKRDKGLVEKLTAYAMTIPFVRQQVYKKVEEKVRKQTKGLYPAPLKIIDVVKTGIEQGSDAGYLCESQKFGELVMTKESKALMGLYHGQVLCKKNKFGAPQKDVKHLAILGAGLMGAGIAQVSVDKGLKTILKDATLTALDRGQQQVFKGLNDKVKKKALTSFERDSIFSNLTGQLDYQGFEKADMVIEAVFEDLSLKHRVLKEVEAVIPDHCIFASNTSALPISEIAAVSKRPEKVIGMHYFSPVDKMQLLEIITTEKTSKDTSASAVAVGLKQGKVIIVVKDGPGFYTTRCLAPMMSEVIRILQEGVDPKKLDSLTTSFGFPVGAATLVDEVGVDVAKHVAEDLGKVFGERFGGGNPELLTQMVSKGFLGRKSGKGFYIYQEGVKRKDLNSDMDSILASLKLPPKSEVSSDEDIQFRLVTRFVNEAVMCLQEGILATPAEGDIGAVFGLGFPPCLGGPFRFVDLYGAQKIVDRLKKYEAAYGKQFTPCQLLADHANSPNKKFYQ

B1: Pyruvate dehydrogenase E1 component subunit beta, mitochondrial (protein, UniProt P11177 31-359)
chain: LQVTVRDAINQGMDEELERDEKVFLLGEEVAQYDGAYKVSRGLWKKYGDKRIIDTPISEMGFAGIAVGAAMAGLRPICEFMTFNFSMQAIDQVINSAAKTYYMSGGLQPVPIVFRGPNGASAGVAAQHSQCFAAWYGHCPGLKVVSPWNSEDAKGLIKSAIRDNNPVVVLENELMYGVPFEFPPEAQSKDFLIPIGKAKIERQGTHITVVSHSRPVGHCLEAAAVLSKEGVECEVINMRTIRPMDMETIEASVMKTNHLVTVEGGWPQFGVGAEICARIMEGPAFNFLDAPAVRVTGADVPMPYAKILEDNSIPQVKDIIFAIKKTLNI
B2: Acetyl-CoA acetyltransferase, mitochondrial (protein, UniProt P24752 34-427)
chain: VSKPTLKEVVIVSATRTPIGSFLGSLSLLPATKLGSIAIQGAIEKAGIPKEEVKEAYMGNVLQGGEGQAPTRQAVLGAGLPISTPCTTINKVCASGMKAIMMASQSLMCGHQDVMVAGGMESMSNVPYVMNRGSTPYGGVKLEDLIVKDGLTDVYNKIHMGSCAENTAKKLNIARNEQDAYAINSYTRSKAAWEAGKFGNEVIPVTVTVKGQPDVVVKEDEEYKRVDFSKVPKLKTVFQKENGTVTAANASTLNDGAAALVLMTADAAKRLNVTPLARIVAFADAAVEPIDFPIAPVYAASMVLKDVGLKKEDIAMWEVNEAFSLVVLANIKMLEIDPQKVNINGGAVSLGHPIGMSGARIVGHLTHALKQGEYGLASICNGGGGASAMLIQKL
B3: Cytosolic acyl coenzyme A thioester hydrolase (protein, UniProt O00154 1-380)
chain: MKLLARALRLCEFGRQASSRRLVAGQGCVGPRRGCCAPVQVVGPRADLPPCGACITGRIMRPDDANVAGNVHGGTILKMIEEAGAIISTRHCNSQNGERCVAALARVERTDFLSPMCIGEVAHVSAEITYTSKHSVEVQVNVMSENILTGAKKLTNKATLWYVPLSLKNVDKVLEVPPVVYSRQEQEEEGRKRYEAQKLERMETKWRNGDIVQPVLNPEPNTVSYSQSSLIHLVGPSDCTLHGFVHGGVTMKLMDEVAGIVAARHCKTNIVTASVDAINFHDKIRKGCVITISGRMTFTSNKSMEIEVLVDADPVVDSSQKRYRAASAFFTYVSLSQEGRSLPVPQLVPETEDEKKRFEEGKGRYLQMKAKRQGHAEPQP
B4: 3-Ketoacyl-CoA thiolase, mitochondrial (protein, UniProt P42765 1-397)
chain: MALLRGVFVVAAKRTPFGAYGGLLKDFTATDLSEFAAKAALSAGKVSPETVDSVIMGNVLQSSSDAIYLARHVGLRVGIPKETPALTINRLCGSGFQSIVNGCQEICVKEAEVVLCGGTESMSQAPYCVRNVRFGTKLGSDIKLEDSLWVSLTDQHVQLPMAMTAENLAVKHKISREECDKYALQSQQRWKAANDAGYFNDEMAPIEVKTKKGKQTMQVDEHARPQTTLEQLQKLPPVFKKDGTVTAGNASGVADGAGAVIIASEDAVKKHNFTPLARIVGYFVSGCDPSIMGIGPVPAISGALKKAGLSLKDMDLVEVNEAFAPQYLAVERSLDLDISKTNVNGGAIALGHPLGGSGSRITAHLVHELRRRGGKYAVGSACIGGGQGIAVIIQSTA
B5: Aconitate hydratase, mitochondrial (protein, UniProt Q99798 28-780)
chain: QRAKVAMSHFEPNEYIHYDLLEKNINIVRKRLNRPLTLSEKIVYGHLDDPASQEIERGKSYLRLRPDRVAMQDATAQMAMLQFISSGLSKVAVPSTIHCDHLIEAQVGGEKDLRRAKDINQEVYNFLATAGAKYGVGFWKPGSGIIHQIILENYAYPGVLLIGTDSHTPNGGGLGGICIGVGGADAVDVMAGIPWELKCPKVIGVKLTGSLSGWSSPKDVILKVAGILTVKGGTGAIVEYHGPGVDSISCTGMATICNMGAEIGATTSVFPYNHRMKKYLSKTGREDIANLADEFKDHLVPDPGCHYDQLIEINLSELKPHINGPFTPDLAHPVAEVGKVAEKEGWPLDIRVGLIGSCTNSSYEDMGRSAAVAKQALAHGLKCKSQFTITPGSEQIRATIERDGYAQILRDLGGIVLANACGPCIGQWDRKDIKKGEKNTIVTSYNRNFTGRNDANPETHAFVTSPEIVTALAIAGTLKFNPETDYLTGTDGKKFRLEAPDADELPKGEFDPGQDTYQHPPKDSSGQHVDVSPTSQRLQLLEPFDKWDGKDLEDLQILIKVKGKCTTDHISAAGPWLKFRGHLDNISNNLLIGAINIENGKANSVRNAVTQEFGPVPDTARYYKKHGIRWVVIGDENYGEGSSREHAALEPRHLGGRAIITKSFARIHETNLKKQGLLPLTFADPADYNKIHPVDKLTIQGLKDFTPGKPLKCIIKHPNGTQETILLNHTFNETQIEWFRAGSALNRMKELQQ
B6: Pyrroline-5-carboxylate reductase 2 (protein, UniProt Q96C36 1-320)
chain: MSVGFIGAGQLAYALARGFTAAGILSAHKIIASSPEMNLPTVSALRKMGVNLTRSNKETVKHSDVLFLAVKPHIIPFILDEIGADVQARHIVVSCAAGVTISSVEKKLMAFQPAPKVIRCMTNTPVVVQEGATVYATGTHALVEDGQLLEQLMSSVGFCTEVEEDLIDAVTGLSGSGPAYAFMALDALADGGVKMGLPRRLAIQLGAQALLGAAKMLLDSEQHPCQLKDNVCSPGGATIHALHFLESGGFRSLLINAVEASCIRTRELQSMADQEKISPAALKKTLLDRVKLESPTVSTLTPSSPGKLLTRSLALGGKKD
B7: Isocitrate dehydrogenase [NAD] subunit alpha, mitochondrial (protein, UniProt P50213 28-366)
chain: TGGVQTVTLIPGDGIGPEISAAVMKIFDAAKAPIQWEERNVTAIQGPGGKWMIPSEAKESMDKNKMGLKGPLKTPIAAGHPSMNLLLRKTFDLYANVRPCVSIEGYKTPYTDVNIVTIRENTEGEYSGIEHVIVDGVVQSIKLITEGASKRIAEFAFEYARNNHRSNVTAVHKANIMRMSDGLFLQKCREVAESCKDIKFNEMYLDTVCLNMVQDPSQFDVLVMPNLYGDILSDLCAGLIGGLGVTPSGNIGANGVAIFESVHGTAPDIAGKDMANPTALLLSAVMMLRHMGLFDHAARIEAACFATIKDGKSLTKDLGGNAKCSDFTEEICRRVKDLD
B8: Putative coiled-coil-helix-coiled-coil-helix domain-containing protein CHCHD2P9, mitochondrial (protein, UniProt Q5T1J5 10-151)
chain: SRMAPPASRAPQMRAAPRPAPVAQPPAAAPPSAVGSSAAAPRQPGLMAQMATTAAGVAVGSAVGHTQGHAVTGGFSGGSNAEPARPDIAYQEPQGTQPAQQQQPCFYGIKQFLECAQNQGDIKLCEDFSKVLKQCRLAKGLA
B9: Enoyl-CoA hydratase, mitochondrial (protein, UniProt P30084 28-290)
chain: ASGANFEYIIAEKRGKNNTVGLIQLNRPKALNALCDGLIDELNQALKTFEEDPAVGAIVLTGGDKAFAAGADIKEMQNLSFQDCYSSKFLKHWDHLTQVKKPVIAAVNGYAFGGGCELAMMCDIIYAGEKAQFAQPEILIGTIPGAGGTQRLTRAVGKSLAMEMVLTGDRISAQDAKQAGLVSKICPVETLVEEAIQCAEKIASNSKIVVAMAKESVNAAFEMTLTEGSKLEKKLFYSTFATDDRKEGMTAFVEKRKANFKDQ
B10: Electron transfer flavoprotein subunit alpha, mitochondrial (protein, UniProt P13804 20-333)
chain: QSTLVIAEHANDSLAPITLNTITAATRLGGEVSCLVAGTKCDKVAQDLCKVAGIAKVLVAQHDVYKGLLPEELTPLILATQKQFNYTHICAGASAFGKNLLPRVAAKLEVAPISDIIAIKSPDTFVRTIYAGNALCTVKCDEKVKVFSVRGTSFDAAATSGGSASSEKASSTSPVEISEWLDQKLTKSDRPELTGAKVVVSGGRGLKSGENFKLLYDLADQLHAAVGASRAAVDAGFVPNDMQVGQTGKIVAPELYIAVGISGAIQHLAGMKDSKTIVAINKDPEAPIFQVADYGIVADLFKVVPEMTEILKKK
B11: Sideroflexin-1 (protein, UniProt Q9H9B4 1-322)
chain: MSGELPPNINIKEPRWDQSTFIGRANHFFTVTDPRNILLTNEQLESARKIVHDYRQGIVPPGLTENELWRAKYIYDSAFHPDTGEKMILIGRMSAQVPMNMTITGCMMTFYRTTPAVLFWQWINQSFNAVVNYTNRSGDAPLTVNELGTAYVSATTGAVATALGLNALTKHVSPLIGRFVPFAAVAAANCINIPLMRQRELKVGIPVTDENGNRLGESANAAKQAITQVVVSRILMAAPGMAIPPFIMNTLEKKAFLKRFPWMSAPIQVGLVGFCLVFATPLCCALFPQKSSMSVTSLEAELQAKIQESHPELRRVYFNKGL

Each molecule was assayed against FLAG-tagged CLPX (CLPXf) (human) (UniProt O76031) (assay: affinity purification with mass spectrometry; FLAG-tagged CLPX precipitated from lysate of doxycycline-induced CLPXf^ind/FT293^ΔCLPX cells with anti-DDDDK-agarose beads (3 h, 4 °C), eluted with DDDDK peptides, trypsin digest, LC-MS/MS; OTC-Lucf cells as control for non-specific proteins; mitochondrial proteins extracted with DAVID).

Row | binding | Molecule
1 | binds | Superoxide dismutase [Cu-Zn] (from UniProt P00441 1-154)
2 | binds | Polyadenylate-binding protein 5 (from UniProt Q96DU9 1-382)
3 | binds | Creatine kinase U-type, mitochondrial (from UniProt P12532 40-417)
4 | binds | Dynein light chain 1, cytoplasmic (from UniProt P63167 1-89)
5 | binds | Serine/threonine-protein phosphatase PP1-gamma catalytic subunit (from UniProt P36873 1-323)
6 | binds | Trifunctional enzyme subunit alpha, mitochondrial (from UniProt P40939 37-763)
7 | binds | B1
8 | binds | B2
9 | binds | B3
10 | binds | B4
11 | binds | B5
12 | binds | B6
13 | binds | B7
14 | binds | B8
15 | binds | B9
16 | binds | B10
17 | binds | B11
